Experiment [1] has as its target T1, NirA-NES synthetic peptide with methionine 169 sulfoxide (D159-G176) (Aspergillus nidulans).
T1 sequence (peptide, methionine sulfoxide at 169; biotin (position not stated)): DQFESELAGKMSNLVLDG
Briefly: pull-down; biotinylated NES peptides immobilised on streptavidin Sepharose, incubated 2 h on ice with 1 ml cell-free extract of the strain Stag-KapK grown non-induced (arginine); washes with 150, 250 and 500 mM NaCl, 10 mM Tris-HCl pH 8; Western blot with anti-S-tag antibody; only the target purified.

The target in experiment [2] is T2, NirA-NES synthetic peptide with reduced methionine 169 (D159-G176) (Aspergillus nidulans).
T2 sequence (peptide, biotin (position not stated)): DQFESELAGKMSNLVLDG
Described as above.

Results on one substance are retold here after PMC4488483, “Reversible Oxidation of a Conserved Methionine in the Nuclear Export Sequence Determines Subcellular Distribution and Activity of the Fungal Nitrate Regulator NirA” (PLoS Genetics, 2015).

No constants are given. Whether binding was seen depends on the method and setting. In cells and extracts the contact can be indirect. A result given as binding can be weak or reduced; the word gives no strength.

Take “S-tagged KapK (exportin KapK, the CRM1 homologue in A. nidulans) (from UniProt Q6Q6S4)”: the binding result in experiment [1] and in experiment [2] was “binds” in each case.
